Measured values from patent publication US20230190951A1 (SYNAFFIX B.V., priority 2020, published 2023).

Test: peptide synthesis
Details: conjugation step

**Q.** For Arylazide-PEG11-LPETGG, which conjugation yield is on record?
**A.** The conjugation yield was 59%.

**Q.** Which conjugation yield does the source give for BCN-LPETGG here?
**A.** The conjugation yield was 72%.

**Q.** With BCN-PEG12-LPETGG as the substance, how does the conjugation yield read?
**A.** Its conjugation yield is 63%.

**Q.** With BCN-PEG24-LPETGG as the substance, how does the conjugation yield read?
**A.** Its conjugation yield is 62%.

**Q.** For Tetrazine-PEG3-LPETGG, which conjugation yield is on record?
**A.** The conjugation yield was 91%.
